Laboratory results as given in PMC6071992.
These are yes or no findings as the source states them, for the method shown. For some assays here: Binding seen in cells or lysates may run through a third protein. Some results given as binding are weak or reduced against the parent protein; the word gives no strength. Sequences can lack the tags named with a protein.

Amino acid sequences for entries named in this document (tags omitted).
UniProt P42582: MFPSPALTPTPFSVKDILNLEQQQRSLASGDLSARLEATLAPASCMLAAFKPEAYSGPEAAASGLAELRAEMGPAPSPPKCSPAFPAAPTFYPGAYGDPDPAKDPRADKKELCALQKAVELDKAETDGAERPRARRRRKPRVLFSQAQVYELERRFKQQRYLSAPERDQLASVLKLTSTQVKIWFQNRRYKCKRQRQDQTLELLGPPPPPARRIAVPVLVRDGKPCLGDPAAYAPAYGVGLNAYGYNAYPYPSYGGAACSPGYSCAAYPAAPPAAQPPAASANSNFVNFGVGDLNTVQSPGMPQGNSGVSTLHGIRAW
UniProt Q13951: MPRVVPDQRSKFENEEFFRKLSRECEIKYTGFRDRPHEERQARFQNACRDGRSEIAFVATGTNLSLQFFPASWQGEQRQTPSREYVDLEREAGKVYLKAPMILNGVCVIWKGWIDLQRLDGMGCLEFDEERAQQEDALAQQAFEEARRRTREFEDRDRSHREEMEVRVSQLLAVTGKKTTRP

Legend:
[1] = target: T1, GST-TBX18 N-terminal region (aa 1-157) (mouse) (UniProt Q9EPZ6); experiment: pull-down; GST-TBX18 domain fusion proteins on glutathione beads incubated 2 h with NP-40 extracts of 293 cells transfected with MYC- or HA-tagged candidates; washed 3 times with pull-down buffer (20 mM HEPES pH 7.9, 100 mM NaCl, 10 mM KCl, 5 mM MgCl2, 0.5 mM EDTA, 5% glycerol, 0.05% Triton X-100, 1 mM DTT); Western blot against the tags; only the target purified
T1 sequence: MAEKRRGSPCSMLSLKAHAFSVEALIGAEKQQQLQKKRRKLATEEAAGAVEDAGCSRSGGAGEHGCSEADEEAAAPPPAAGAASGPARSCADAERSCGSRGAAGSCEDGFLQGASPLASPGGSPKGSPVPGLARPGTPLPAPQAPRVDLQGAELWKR

[2] = target: T2, GST-TBX18 T-box (aa 148-345) (mouse) (UniProt Q9EPZ6); experiment: as above
T2 sequence: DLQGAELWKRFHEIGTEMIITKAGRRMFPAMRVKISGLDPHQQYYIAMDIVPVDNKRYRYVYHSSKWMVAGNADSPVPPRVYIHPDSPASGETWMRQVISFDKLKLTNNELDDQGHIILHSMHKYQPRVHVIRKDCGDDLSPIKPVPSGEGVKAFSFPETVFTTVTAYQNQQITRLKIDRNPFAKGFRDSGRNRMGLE

[3] = target: T3, HA-tagged full-length TBX18 protein (mouse) (UniProt Q9EPZ6); experiment: nuclear recruitment assay (immunofluorescence); modified assay: 293 cells co-transfected with full-length (nuclear) TBX18 and a candidate that lies outside the nucleus; recruitment of the candidate into the nucleus read by immunofluorescence against the tags
T3 sequence: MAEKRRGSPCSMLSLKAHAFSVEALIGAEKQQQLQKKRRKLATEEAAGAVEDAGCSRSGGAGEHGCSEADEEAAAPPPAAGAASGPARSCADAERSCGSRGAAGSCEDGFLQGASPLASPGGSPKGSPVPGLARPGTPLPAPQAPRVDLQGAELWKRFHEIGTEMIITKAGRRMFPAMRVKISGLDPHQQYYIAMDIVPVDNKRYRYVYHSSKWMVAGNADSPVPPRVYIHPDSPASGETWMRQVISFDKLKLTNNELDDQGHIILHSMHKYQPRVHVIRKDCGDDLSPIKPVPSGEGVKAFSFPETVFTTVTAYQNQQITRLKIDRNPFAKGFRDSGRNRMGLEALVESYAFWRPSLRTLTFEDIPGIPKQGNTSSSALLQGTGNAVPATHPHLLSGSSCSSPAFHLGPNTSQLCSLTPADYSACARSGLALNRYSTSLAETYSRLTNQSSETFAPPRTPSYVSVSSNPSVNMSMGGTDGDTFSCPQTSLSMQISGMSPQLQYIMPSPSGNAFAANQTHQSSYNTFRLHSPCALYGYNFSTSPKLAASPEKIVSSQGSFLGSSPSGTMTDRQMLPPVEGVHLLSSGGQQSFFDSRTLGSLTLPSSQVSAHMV

[4] = target: T4, GST-TBX18 C-terminal region (aa 336-613) (mouse) (UniProt Q9EPZ6); experiment: pull-down; GST-TBX18 domain fusion proteins on glutathione beads incubated 2 h with NP-40 extracts of 293 cells transfected with MYC- or HA-tagged candidates; washed 3 times with pull-down buffer (20 mM HEPES pH 7.9, 100 mM NaCl, 10 mM KCl, 5 mM MgCl2, 0.5 mM EDTA, 5% glycerol, 0.05% Triton X-100, 1 mM DTT); Western blot against the tags; only the target purified
T4 sequence: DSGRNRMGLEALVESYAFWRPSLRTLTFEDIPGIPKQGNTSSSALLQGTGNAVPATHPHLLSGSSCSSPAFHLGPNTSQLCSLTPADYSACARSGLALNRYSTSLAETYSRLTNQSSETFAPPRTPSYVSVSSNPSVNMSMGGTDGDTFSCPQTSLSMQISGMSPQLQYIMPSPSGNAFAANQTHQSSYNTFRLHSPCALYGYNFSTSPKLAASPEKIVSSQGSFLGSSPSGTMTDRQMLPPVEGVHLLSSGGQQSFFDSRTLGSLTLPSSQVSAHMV

[5] = target: T4, GST-TBX18 C-terminal region (aa 336-613) (mouse); experiment: pull-down; GST-TBX18 domain fusion proteins on glutathione beads incubated 2 h with 20 to 40 ul reticulocyte lysate with in vitro translated 35S-labelled proteins; washed 3 times with pull-down buffer; SDS-PAGE and autoradiography; only the target purified
[6] = target: T2, GST-TBX18 T-box (aa 148-345) (mouse); experiment: as above
[7] = target: T1, GST-TBX18 N-terminal region (aa 1-157) (mouse); experiment: as above

HA-tagged CHD7 (from UniProt Q9P2D1 1-2997)
binding [1]: binds
binding [2]: binds

HA-tagged NKX2.5 (from UniProt P42582 1-318)
binding [2]: binds

MYC-tagged CBFB (from UniProt Q13951 1-182)
binding [3]: binds
binding [4]: binds
binding [1]: binds
binding [2]: binds

in vitro translated 35S-labelled CBFB (from UniProt Q13951 1-182)
binding [5]: binds weakly
binding [6]: binds

in vitro translated 35S-labelled NKX2.5 (from UniProt P42582 1-318)
binding [6]: binds

B1: CHD7-3, amino acid residues 1533-2380, in vitro translated (domain or fragment, UniProt Q9P2D1 1533-2380)
chain: KWAKKAELDIDALNGRNNLVIDTPRVRKQTRLYSAVKEDELMEFSDLESDSEEKPCAKPRRPQDKSQGYARSECFRVEKNLLVYGWGRWTDILSHGRYKRQLTEQDVETICRTILVYCLNHYKGDENIKSFIWDLITPTADGQTRALVNHSGLSAPVPRGRKGKKVKAQSTQPVVQDADWLASCNPDALFQEDSYKKHLKHHCNKVLLRVRMLYYLRQEVIGDQADKILEGADSSEADVWIPEPFHAEVPADWWDKEADKSLLIGVFKHGYEKYNSMRADPALCFLERVGMPDAKAIAAEQRGTDMLADGGDGGEFDREDEDPEYKPTRTPFKDEIDEFANSPSEDKEESMEIHATGKHSESNAELGQLYWPNTSTLTTRLRRLITAYQRSYKRQQMRQEALMKTDRRRRRPREEVRALEAEREAIISEKRQKWTRREEADFYRVVSTFGVIFDPVKQQFDWNQFRAFARLDKKSDESLEKYFSCFVAMCRRVCRMPVKPDDEPPDLSSIIEPITEERASRTLYRIELLRKIREQVLHHPQLGERLKLCQPSLDLPEWWECGRHDRDLLVGAAKHGVSRTDYHILNDPELSFLDAHKNFAQNRGAGNTSSLNPLAVGFVQTPPVISSAHIQDERVLEQAEGKVEEPENPAAKEKCEGKEEEEETDGSGKESKQECEAEASSVKNELKGVEVGADTGSKSISEKGSEEDEEEKLEDDDKSEESSQPEAGAVSRGKNFDEESNASMSTARDETRDGFYMEDGDPSVAQLLHERTFAFSFWPKDRVMINRLDNICEAVLKGKWPVNRRQMFDFQGLIPGYTPTTVDSPLQKRSFAELSMVGQASISGSEDI
modifications: 35S-labelled methionine/cysteine
binding [7]: binds weakly
binding [6]: binds

B2: in vitro translated 35S-labelled MAP9 (protein, UniProt Q49MG5 1-647)
chain: MSDEVFSTTLAYTKSPKVTKRTTFQDELIRAITARSARQRSSEYSDDFDSDEIVSLGDFSDTSADENSVNKKMNDFHISDDEEKNPSKLLFLKTNKSNGNITKDEPVCAIKNEEEMAPDGCEDIVVKSFSESQNKDEEFEKDKIKMKPKPRILSIKSTSSAENNSLDTDDHFKPSPRPRSMLKKKSHMEEKDGLEDKETALSEELELHSAPSSLPTPNGIQLEAEKKAFSENLDPEDSCLTSLASSSLKQILGDSFSPGSEGNASGKDPNEEITENHNSLKSDENKENSFSADHVTTAVEKSKESQVTADDLEEEKAKAELIMDDDRTVDPLLSKSQSILISTSATASSKKTIEDRNIKNKKSTNNRASSASARLMTSEFLKKSSSKRRTPSTTTSSHYLGTLKVLDQKPSQKQSIEPDRADNIRAAVYQEWLEKKNVYLHEMHRIKRIESENLRIQNEQKKAAKREEALASFEAWKAMKEKEAKKIAAKKRLEEKNKKKTEEENAARKGEALQAFEKWKEKKMEYLKEKNRKEREYERAKKQKEEETVAEKKKDNLTAVEKWNEKKEAFFKQKEKEKINEKRKEELKRAEKKDKDKQAINEYEKWLENKEKQERIERKQKKRHSFLESEALPPWSPPSRTVFAKVF
modifications: 35S-labelled methionine/cysteine
binding [6]: binds

B3: in vitro translated 35S-labelled HAUS8 (protein, UniProt Q9BT25 1-410)
chain: MADSSGRGAGKPATGPTNSSSAKKKDKRVQGGRVIESRYLQYEKKTTQKAPAGDGSQTRGKMSEGGRKSSLLQKSKADSSGVGKGDLQSTLLEGHGTAPPDLDLSAINDKSIVKKTPQLAKTISKKPESTSFSAPRKKSPDLSEAMEMMESQTLLLTLLSVKMENNLAEFERRAEKNLLIMCKEKEKLQKKAHELKRRLLLSQRKRELADVLDAQIEMLSPFEAVATRFKEQYRTFATALDTTRHELPVRSIHLEGDGQQLLDALQHELVTTQRLLGELDVGDSEENVQVLDLLSELKDVTAKKDLELRRSFAQVLELSAEASKEAALANQEVWEETQGMAPPSRWYFNQDSACRESGGAPKNTPLSEDDNPGASSAPAQATFISPSEDFSSSSQAEVPPSLSRSGRDLS
modifications: 35S-labelled methionine/cysteine
binding [7]: binds
binding [6]: binds

B4: in vitro translated 35S-labelled B9D2 (protein, UniProt Q9BPU9 1-175)
chain: MAEVHVIGQIIGASGFSESSLFCKWGIHTGAAWKLLSGVREGQTQVDTPQIGDMAYWSHPIDLHFATKGLQGWPRLHFQVWSQDSFGRCQLAGYGFCHVPSSPGTHQLACPTWRPLGSWREQLARAFVGGGPQLLHGDTIYSGADRYRLHTAAGGTVHLEIGLLLRNFDRYGVEC
modifications: 35S-labelled methionine/cysteine
binding [5]: binds
binding [6]: binds
